# Reference: patent US12702649B2, “Method of treating cystic fibrosis airway disease” (priority 2016, dated 2026)
# Conditions: sputum mixed 1:1 v/v with 200 mM NaHCO3, compared to equimolar NaCl, 5% CO2
smiles,measurement,value
O=C([O-])O.[Na+] [NaHCO3],CF sputum pH,increased sputum pH
